For two molecules, fluorescence ratio to DMSO results are on record in PubChem BioAssay AID588517 (NMMLSC, 2011).

In all, about 1,700 compounds went through this assay and about 65 (4%) were called active.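 How the source made its calls: active means fluorescence ratio to DMSO above its plate's cutoff, the plate mean ratio plus 5 SD (cut at about 210% in these data); inactive means the rest.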 The entries are a selection whose mix differs from that of the whole data set.

The nature of the experiment: compound autofluorescence in empty-vector yeast, confirmation, artefact control for antifungal efflux pump inhibitor project, S. cerevisiae AD/pABC3, flow cytometry, Cherry Pick1 set (AID 588517).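 Further: unstained yeast with no Nile Red so the signal is compound autofluorescence.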 To be noted: at 10 µM, stronger effect = higher value. A general note: Flow cytometry measures light scatter and fluorescence of single cells or particles in a stream.
Consider `CCN(CC)c1ccc([N+](=O)[O-])c2cccnc12`, for which the fluorescence ratio to DMSO was inactive: 107%.
To `O=[N+]([O-])c1cnc2ccc3ccccc3c2c1` belongs inactive: 94.4%.
